# Experimental data as given in article PMC7819943, “Rice protein-binding microarrays: a tool to detect cis-acting elements near promoter regions in rice”.
# By UniProt entry, the sequences of proteins in these tests, tags left out.
# UniProt Q0JBA9, entry or part of it: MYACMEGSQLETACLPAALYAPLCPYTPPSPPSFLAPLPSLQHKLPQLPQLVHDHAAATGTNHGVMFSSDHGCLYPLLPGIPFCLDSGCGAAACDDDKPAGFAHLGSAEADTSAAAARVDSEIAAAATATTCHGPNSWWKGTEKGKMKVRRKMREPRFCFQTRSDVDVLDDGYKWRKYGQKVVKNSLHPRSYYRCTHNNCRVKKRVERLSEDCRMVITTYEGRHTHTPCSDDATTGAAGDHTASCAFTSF
# This is one part of the list.
# Target: OsWRKY34 (Oryza sativa, UniProt Q0JBA9 1-250)
# Assay: protein-binding microarray (RPBM); PBS, 2% BSA, 51.3 ng/ul salmon testes DNA, 50 uM zinc acetate, 200 nM TF, 25 C, 1 h; high values mean tight binding
# Details: protein: recombinant; tags: N-terminal polyhistidine and DsRed monomer fusion (pET32a); label: CyDye5-dUTP incorporated in the synthesized complementary strand; 3' TTTTT single-stranded linker to array surface; dsDNA, one strand shown
# Method in brief: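 Binding signal is reported as fluorescence intensity per feature (arbitrary units) from an Axon 4000B scanner. Incubation used 200 nM of each Ni–NTA-purified, N-terminally polyhistidine- and DsRed-fused transcription factor from E. coli BL21-CodonPlus on a double-stranded custom Agilent array for 1 h at 25 °C, with 50 µM zinc acetate in the buffer, followed by washing.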
row,Sequence,binding signal
1,CAGCCCAGTACACCTCTCCCTGGTACACCCCTCGACGGAACGGAGTCACCTAGTGCAG,9440 fluorescence intensity (a.u.)
2,GCTGTTTTTCTTCATGTAGTTACCCTTCTAGAAAAGCAATCGGAGTCACCTAGTGCAG,8340 fluorescence intensity (a.u.)
3,CTGTTCTTTCTTTCACTGTCGGATGTGATGACTGTTTGTCCGGAGTCACCTAGTGCAG,13000 fluorescence intensity (a.u.)
4,CTCAGTATCCTGCTCGTCCTAGTCTGCTTTCTCCATCTGACGGAGTCACCTAGTGCAG,14400 fluorescence intensity (a.u.)
5,GCTGCATCTCTCCCTCTCTCTCGCGTTCCATCGCCACGCCCGGAGTCACCTAGTGCAG,11000 fluorescence intensity (a.u.)
6,AACCTCTCCATTTCAACCTGTTCACGATCCTGCTTAACCACGGAGTCACCTAGTGCAG,10900 fluorescence intensity (a.u.)
7,TTTTTCTCGGTAATTTTGTGATTGGTCTACTCCTACAAAACGGAGTCACCTAGTGCAG,8290 fluorescence intensity (a.u.)
8,CTAGCTAGCAATCGAGCTCAGTTTTCCTAATTAATTGCTACGGAGTCACCTAGTGCAG,8300 fluorescence intensity (a.u.)
9,CCCTATTCCTCTCTCTCTTCTCTTTTCTCTCTGTCGCTCTCGGAGTCACCTAGTGCAG,8790 fluorescence intensity (a.u.)
10,CCATCCAGTTTTCCATGTTTCCCAGCTCAAGGTTGCACATCGGAGTCACCTAGTGCAG,9410 fluorescence intensity (a.u.)
11,GTTCCGTTTCGCAGTCGTCGTCGTCGTCTCCGATGATGATCGGAGTCACCTAGTGCAG,9310 fluorescence intensity (a.u.)
12,TTTTTCTTTCATCCCTTTTTGATCTACAAAGTTATACAGTCGGAGTCACCTAGTGCAG,8500 fluorescence intensity (a.u.)
13,TAAGAAGCTATGCACTCTTTCTATTTTCTTTTACATTATACGGAGTCACCTAGTGCAG,8450 fluorescence intensity (a.u.)
14,AACCAGCACGCGATGGGGAGGGGCGAGCAGGAGGCGGCGGCGGAGTCACCTAGTGCAG,12400 fluorescence intensity (a.u.)
15,GACCAACCAAAACCTCCGATCACCTTGTCCCGTACTGAAACGGAGTCACCTAGTGCAG,11000 fluorescence intensity (a.u.)
16,GATATCTCTTGGTCGATTTATTTGTATTTCTGTCATGATTCGGAGTCACCTAGTGCAG,14100 fluorescence intensity (a.u.)
17,ATTGTGGCTGGGTTTCCTGTTAAATGATCTTCCTCTATCTCGGAGTCACCTAGTGCAG,9000 fluorescence intensity (a.u.)
18,CTAGTAGGGTTAGTTTTAGATTTTATCGGGTTCATCTTGTCGGAGTCACCTAGTGCAG,8330 fluorescence intensity (a.u.)
19,AAAGCGTTTTACTTTGGTTATCACAAGTCGTTCCTCTTGTCGGAGTCACCTAGTGCAG,9440 fluorescence intensity (a.u.)
20,TGGGTTGGTTGGGTGGTCGGCTTCGGTCTCGAACCGCGGCCGGAGTCACCTAGTGCAG,11500 fluorescence intensity (a.u.)
21,CCTTTTCTTTCTTTTTTGGATGTGGTGGGGCATGAGCAGTCGGAGTCACCTAGTGCAG,12200 fluorescence intensity (a.u.)

row,Sequence,binding signal
1,TCAAAATGAAACTATTTCTTCACATACGTTCTCCTCTCAACGGAGTCACCTAGTGCAG,8420 fluorescence intensity (a.u.)
2,GAGCTCGCTCCTCACTCGATCGCCGTGTCGCAGTTCATCCCGGAGTCACCTAGTGCAG,9120 fluorescence intensity (a.u.)
3,CGTGTAAGTGATAGAGTGGGTAGGTAGTTGGGTGGGTTTACGGAGTCACCTAGTGCAG,9280 fluorescence intensity (a.u.)
4,CTAACGAATCATGGTTTTGCAGCATCCGCCTTTGCGTTTACGGAGTCACCTAGTGCAG,9540 fluorescence intensity (a.u.)
5,CATGTGGGTCCCACCTGCTGACTCAGTGAGTCAAATCTGCCGGAGTCACCTAGTGCAG,8480 fluorescence intensity (a.u.)
6,CTGTCCTCCTTATCCTGATCAGTCCTCGGTCGGCTTTTCCCGGAGTCACCTAGTGCAG,9680 fluorescence intensity (a.u.)
7,ATCTCCCATGTGTGCATGCATCTTTTTTTGTTGTTTGCTGCGGAGTCACCTAGTGCAG,11200 fluorescence intensity (a.u.)
8,GAGTCTTTCTGATTTTGTATTGGTACGTGTGGGATAGGTTCGGAGTCACCTAGTGCAG,8600 fluorescence intensity (a.u.)
9,TGACTTTTTCCCACATGTTTGACCATTCGTCTTTTCAAAACGGAGTCACCTAGTGCAG,9590 fluorescence intensity (a.u.)
10,TCATTTGCTTTATTATCAAAAGTACTTTACATATGACTTACGGAGTCACCTAGTGCAG,9230 fluorescence intensity (a.u.)
11,CACCATTGGGATGGGTGCCTATTTCTTGGAGACCGTTGACCGGAGTCACCTAGTGCAG,17300 fluorescence intensity (a.u.)
12,ACTCATCCTCATCCTCTCCATCCCTACCCACAAACTACAGCGGAGTCACCTAGTGCAG,8670 fluorescence intensity (a.u.)
13,TTTCTATTTTTAACACTTCCGTCAATTCTCAATCGTTTTCCGGAGTCACCTAGTGCAG,11100 fluorescence intensity (a.u.)
14,ATGGTACCTCGTCTTCTCCACTTATCCACCATCAATGTTCCGGAGTCACCTAGTGCAG,9150 fluorescence intensity (a.u.)
15,ATATCCATGATTCTCTCCGGTGAACTAAAACTTCAAAACCCGGAGTCACCTAGTGCAG,8710 fluorescence intensity (a.u.)
16,TCATATGGAACTATCACATGACTATACAACCTATCTTCTTCGGAGTCACCTAGTGCAG,8190 fluorescence intensity (a.u.)
17,CCCCACGGCGGCGTCGCTCCCTGTACCCCTCAGCCACGGCCGGAGTCACCTAGTGCAG,9310 fluorescence intensity (a.u.)
18,TTGTCGTCGTCGTCCTCGTCCTCGTATGCCGTCCGCTGGCCGGAGTCACCTAGTGCAG,13200 fluorescence intensity (a.u.)
19,TTCTCACTTAAATTTATAGTGTATTTTCTTTTAATTTACACGGAGTCACCTAGTGCAG,8720 fluorescence intensity (a.u.)
20,CCTACACCCTCATGCTGTTCGTGATCATCTTCCCGCTTCGCGGAGTCACCTAGTGCAG,10900 fluorescence intensity (a.u.)
21,CCATCTTCTTCTCGTTAGGTTCTTGGATTTCATCGCTCAACGGAGTCACCTAGTGCAG,8640 fluorescence intensity (a.u.)

# 2 records picked at random from the list so far:
row,Sequence,binding signal
10,TCATTTGCTTTATTATCAAAAGTACTTTACATATGACTTACGGAGTCACCTAGTGCAG,9230 fluorescence intensity (a.u.)
13,TTTCTATTTTTAACACTTCCGTCAATTCTCAATCGTTTTCCGGAGTCACCTAGTGCAG,11100 fluorescence intensity (a.u.)
